Experimental data from paper PMC7819943, “Rice protein-binding microarrays: a tool to detect cis-acting elements near promoter regions in rice”.
Some of the results follow.

target: T1, OsSMF1 (Oryza sativa, UniProt Q6ZLB0 1-436); test: protein-binding microarray (RPBM); PBS, 2% BSA, 51.3 ng/ul salmon testes DNA, 50 uM zinc acetate, 200 nM TF, 25 C, 1 h; high values mean tight binding; details: protein: recombinant; tags: N-terminal polyhistidine and DsRed monomer fusion (pET32a); chain copies: 2; label: CyDye5-dUTP incorporated in the synthesized complementary strand; 3' TTTTT single-stranded linker to array surface; dsDNA, one strand shown
T1 sequence: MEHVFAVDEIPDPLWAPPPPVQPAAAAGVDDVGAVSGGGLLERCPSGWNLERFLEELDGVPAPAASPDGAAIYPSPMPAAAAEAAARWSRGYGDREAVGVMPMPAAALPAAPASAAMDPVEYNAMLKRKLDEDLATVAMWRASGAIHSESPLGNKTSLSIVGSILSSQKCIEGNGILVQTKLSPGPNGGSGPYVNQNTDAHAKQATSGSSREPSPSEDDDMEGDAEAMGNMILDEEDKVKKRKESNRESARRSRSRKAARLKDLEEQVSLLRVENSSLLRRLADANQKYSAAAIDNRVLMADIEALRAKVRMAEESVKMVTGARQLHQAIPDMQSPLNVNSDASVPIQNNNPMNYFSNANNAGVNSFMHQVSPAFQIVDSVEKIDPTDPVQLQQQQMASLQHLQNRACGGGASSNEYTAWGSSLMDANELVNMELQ
Method in brief: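 A custom Agilent array was converted to double-stranded form by primer extension with Cy5-dUTP and blocked with 2% BSA. Protein at 200 nM in PBS with 2% BSA, salmon testes DNA and 50 µM zinc acetate was applied for 1 h at 25 °C, followed by washing. The proteins were polyhistidine–DsRed N-terminal fusions of transcription factors, expressed in E. coli BL21-CodonPlus and Ni–NTA-purified. The binding signal is per-feature fluorescence intensity (arbitrary units) from an Axon 4000B scanner.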

Going from “AAGAAAACCAATGTCAGCAAACTTATCCAAATCGAGCTCGCGGAGTCACCTAGTGCAG” to “CCGCCACCCGCTGCCCGGGGAGCTCCGCCTTCACCTCCGCCGGAGTCACCTAGTGCAG”, the binding signal rises from 3840 fluorescence intensity (a.u.) to 7820 fluorescence intensity (a.u.).

First: CACGGATTATTGCAATCGATCCAAACAATCACGTCGGTCGCGGAGTCACCTAGTGCAG
Second: GCGAGACGGCAGGTCTTACAGGTGGGCCCCACGTGGCAGACGGAGTCACCTAGTGCAG
The binding signal of the first is lower: 3390 fluorescence intensity (a.u.) for the first, 14200 fluorescence intensity (a.u.) for the second.

Compared with “AGCTATACGTCTCCGGTATTGAACGTGAATTAAAACAATACGGAGTCACCTAGTGCAG”, “ACAATCATCAACTCTAGATGACATGGACATATGTTACCACCGGAGTCACCTAGTGCAG” is higher in binding signal: 3580 fluorescence intensity (a.u.) for the first, 4690 fluorescence intensity (a.u.) for the second.

Going from “CCATTTCTTGCATCCCTTCCGGATCTATCAGCCCCGTCACCGGAGTCACCTAGTGCAG” to “ATTAGGCTCAAAAGATTCGTCTCGCGATTTTCAGACGAGCCGGAGTCACCTAGTGCAG”, the binding signal rises from 4090 fluorescence intensity (a.u.) to 41800 fluorescence intensity (a.u.).

First: AATTGGGTTATCTTTTCCTTGTCATCTAAGATGAAGAATCCGGAGTCACCTAGTGCAG
Second: GTACGCGAGCATCCCGGCGTTGTCGAGGCGCTCCAGGACGCGGAGTCACCTAGTGCAG
The binding signal of the first is lower: 3150 fluorescence intensity (a.u.) for the first, 40200 fluorescence intensity (a.u.) for the second.

Compared with “CGCAGATCGACGACCCGTCCTTCGTCACCGTCTATGGCGTCGGAGTCACCTAGTGCAG”, “GGATCGAATTGCCACATAAACGCCACGTCAATGCCACATCCGGAGTCACCTAGTGCAG” is higher in binding signal: 4530 fluorescence intensity (a.u.) for the first, 10400 fluorescence intensity (a.u.) for the second.

Compared with “TAGCTCTTACATAAAAGCTAGCGTCATTCTCTTATCCACACGGAGTCACCTAGTGCAG”, “TGCTTGCCGTTCGTTCGTGTGTGTGTGCGTGTGCGTAAGCCGGAGTCACCTAGTGCAG” is lower in binding signal: 5300 fluorescence intensity (a.u.) for the first, 4340 fluorescence intensity (a.u.) for the second.

First: AGGGCCGCTTGGGACCCACGTGTCGGTGGGATGGTGTTTGCGGAGTCACCTAGTGCAG
Second: ACAAGGGTCCAAGGCACGCTGAGTCAGACCCACTTGGGCGCGGAGTCACCTAGTGCAG
The binding signal of the first is lower: 7360 fluorescence intensity (a.u.) for the first, 12500 fluorescence intensity (a.u.) for the second.

First: AAACGTAGTCTAATAACAAAACAAATTACAGATTCCGCTTCGGAGTCACCTAGTGCAG
Second: CTGCGGCCGAGGTCGCATGACCATGTGGACATCCTCGCGCCGGAGTCACCTAGTGCAG
The binding signal of the first is higher: 28400 fluorescence intensity (a.u.) for the first, 3460 fluorescence intensity (a.u.) for the second.

Going from “GCTCGCTCCAGTCCACCCACGCACGCACGCACGGCACGTTCGGAGTCACCTAGTGCAG” to “CAACAAGACTTTGGAGATAGGCTAATACGTGTCCTAGTGTCGGAGTCACCTAGTGCAG”, the binding signal rises from 3600 fluorescence intensity (a.u.) to 5760 fluorescence intensity (a.u.).

First: TGGCGTCCGTGACGACGACGGTGACGACGGGCACGATGGCCGGAGTCACCTAGTGCAG
Second: AGTAGCAATTACCCACGTGGCATCCACCGCTGTTGTTTCCCGGAGTCACCTAGTGCAG
The binding signal of the first is lower: 4230 fluorescence intensity (a.u.) for the first, 15900 fluorescence intensity (a.u.) for the second.

Going from “ATCCATGTGATAAATAACACGTGCGCGAATTAACATTTCTCGGAGTCACCTAGTGCAG” to “AGTTTCACGCACGCACACCGGTCCATTGATTTCTCGCCGCCGGAGTCACCTAGTGCAG”, the binding signal falls from 5060 fluorescence intensity (a.u.) to 3300 fluorescence intensity (a.u.).

Going from “ACACCCGTCCGTCCCGTCTCGTTCTGCGCCGTCTCGCCGGCGGAGTCACCTAGTGCAG” to “CTGGTGATTCCATCCAGCCGTCCACATGGTCATCGCTCATCGGAGTCACCTAGTGCAG”, the binding signal falls from 18700 fluorescence intensity (a.u.) to 3400 fluorescence intensity (a.u.).

First: GTGTTGGTGGCTCTGGCTGCGTCGACGTGCGCAGGGCGTTCGGAGTCACCTAGTGCAG
Second: TTGACAACAGGAGATTCTGGTCAATTTTAACTATATTATACGGAGTCACCTAGTGCAG
The binding signal of the first is lower: 6130 fluorescence intensity (a.u.) for the first, 25800 fluorescence intensity (a.u.) for the second.

Going from “TAGCCAGAGACTATCCCGCCGTATTATTTCGACCAAATTCCGGAGTCACCTAGTGCAG” to “GTCGGCGCCGAAAGGCATAAACCTGTCAGCGTGGCCCGTCCGGAGTCACCTAGTGCAG”, the binding signal falls from 17200 fluorescence intensity (a.u.) to 3300 fluorescence intensity (a.u.).

First: GCCGCTTTTGCGAATTTTGCACGTAGACCCCTTGCCGCCCCGGAGTCACCTAGTGCAG
Second: AGCCCAATGCTATATACGTTGCAAGTTATAAATTTAAAGACGGAGTCACCTAGTGCAG
The binding signal of the first is lower: 3330 fluorescence intensity (a.u.) for the first, 24800 fluorescence intensity (a.u.) for the second.

Compared with “TATGCCAAAGAGAAGCCTCGTCAGCCATCCCTTTGGCCACCGGAGTCACCTAGTGCAG”, “CGCCGCCTCCCTCACTGACGGGTGGGCCCCACATGTCAGGCGGAGTCACCTAGTGCAG” is lower in binding signal: 7800 fluorescence intensity (a.u.) for the first, 4130 fluorescence intensity (a.u.) for the second.

First: AGACATGTGCCACTCTCAGTTCCTAATGTAAGCTTTCCATCGGAGTCACCTAGTGCAG
Second: CCTGTTTCCCTAGTATCTTTGATAACCATGCTCACCATATCGGAGTCACCTAGTGCAG
The binding signal of the first is higher: 21300 fluorescence intensity (a.u.) for the first, 3400 fluorescence intensity (a.u.) for the second.

Going from “TCCCCACGCTCCCCGTCACCAACCACCCTTTTCCCCGGAACGGAGTCACCTAGTGCAG” to “AAATTACTAGGAGAAGCCAACACGTGTCCAGAAGGAAGAACGGAGTCACCTAGTGCAG”, the binding signal falls from 4880 fluorescence intensity (a.u.) to 3820 fluorescence intensity (a.u.).

First: ATGGTCTCACATGTCATACACATATTCCGTCTTGGAGTTCCGGAGTCACCTAGTGCAG
Second: GACGAGGAGCAGGAGGAAGCATTTGAGCGTCGTCACGGTTCGGAGTCACCTAGTGCAG
The binding signal of the first is higher: 3240 fluorescence intensity (a.u.) for the first, 3200 fluorescence intensity (a.u.) for the second.

Compared with “AGCCACCGCCGGCCACATCCCTCGCACGTCTGCGCTCGCCCGGAGTCACCTAGTGCAG”, “ATGTGGGTGTGTGAATGACAAATGGGTCCCACGTATAACTCGGAGTCACCTAGTGCAG” is lower in binding signal: 4690 fluorescence intensity (a.u.) for the first, 4460 fluorescence intensity (a.u.) for the second.
